Assay [1] concerns the target T1, (His)6Xpress-tagged TSP-15 (C. elegans) (UniProt Q9XVM9).
T1 sequence: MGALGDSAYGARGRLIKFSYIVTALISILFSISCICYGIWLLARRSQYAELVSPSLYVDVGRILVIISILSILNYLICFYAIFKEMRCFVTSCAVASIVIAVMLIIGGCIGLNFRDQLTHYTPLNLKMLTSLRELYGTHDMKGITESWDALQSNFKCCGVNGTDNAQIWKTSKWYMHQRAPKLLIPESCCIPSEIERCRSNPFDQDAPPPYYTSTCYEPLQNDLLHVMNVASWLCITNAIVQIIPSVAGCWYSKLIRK
Kind of assay: co-IP; COS-7 stable transfectants of Xpress::TSP-15, DOXA-1::FLAG or both, BLI-3 transiently expressed; 1% CHAPS lysate (20 mM Tris-HCl, 150 mM NaCl, 2 mM EDTA, pH 7.5); precipitated with anti-FLAG M2 beads or anti-TSP-15 (2C2) agarose, immunoblot.

The target in assay [2] is T2, FLAG-tagged DOXA-1 (C. elegans) (UniProt P34298).
T2 sequence: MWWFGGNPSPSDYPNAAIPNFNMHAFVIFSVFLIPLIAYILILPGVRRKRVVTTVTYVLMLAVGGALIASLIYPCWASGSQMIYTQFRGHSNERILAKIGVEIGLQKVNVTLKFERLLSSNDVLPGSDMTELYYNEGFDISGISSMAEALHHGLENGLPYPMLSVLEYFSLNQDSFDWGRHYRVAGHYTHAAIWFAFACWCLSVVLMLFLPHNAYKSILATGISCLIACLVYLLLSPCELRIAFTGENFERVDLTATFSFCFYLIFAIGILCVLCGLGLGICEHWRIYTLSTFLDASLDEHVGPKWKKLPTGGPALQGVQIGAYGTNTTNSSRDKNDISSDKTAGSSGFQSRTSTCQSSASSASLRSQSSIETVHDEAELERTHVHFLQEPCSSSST
The description is as above.

In assay [3] the target is T3, DOXA-1::Venus fusion protein (C. elegans) (UniProt P34298).
T3 sequence: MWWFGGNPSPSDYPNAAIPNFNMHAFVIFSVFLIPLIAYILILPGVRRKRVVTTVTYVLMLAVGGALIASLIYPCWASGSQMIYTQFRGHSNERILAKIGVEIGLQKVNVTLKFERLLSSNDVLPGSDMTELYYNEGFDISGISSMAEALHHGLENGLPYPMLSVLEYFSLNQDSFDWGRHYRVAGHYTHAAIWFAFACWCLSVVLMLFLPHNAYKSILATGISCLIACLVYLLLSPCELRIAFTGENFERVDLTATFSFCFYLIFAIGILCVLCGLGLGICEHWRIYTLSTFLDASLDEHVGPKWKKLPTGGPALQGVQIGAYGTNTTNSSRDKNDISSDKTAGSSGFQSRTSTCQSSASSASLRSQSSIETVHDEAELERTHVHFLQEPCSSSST
Nature of the assay: co-IP; C. elegans lysate (N2, OB129, OB218), sonicated, 1% Triton X-100; precipitated with rat anti-TSP-15 or mouse anti-GFP antibody; normal rat or mouse IgG as negative control; immunoblot.

The target in assay [4] is T4, Endogenous TSP-15 (C. elegans (endogenous in worms)) (UniProt Q9XVM9).
T4 sequence: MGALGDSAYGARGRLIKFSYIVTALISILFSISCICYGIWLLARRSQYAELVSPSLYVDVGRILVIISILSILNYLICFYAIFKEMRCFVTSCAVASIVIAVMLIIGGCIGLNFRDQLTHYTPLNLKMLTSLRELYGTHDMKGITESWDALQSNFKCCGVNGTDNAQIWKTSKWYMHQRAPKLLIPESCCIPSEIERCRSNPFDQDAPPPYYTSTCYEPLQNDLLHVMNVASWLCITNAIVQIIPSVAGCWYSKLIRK
The description is as above.

Assay [5] has as its target T5, Xpress-tagged TSP-15 (in OB129 worms) (C. elegans) (UniProt Q9XVM9).
T5 sequence: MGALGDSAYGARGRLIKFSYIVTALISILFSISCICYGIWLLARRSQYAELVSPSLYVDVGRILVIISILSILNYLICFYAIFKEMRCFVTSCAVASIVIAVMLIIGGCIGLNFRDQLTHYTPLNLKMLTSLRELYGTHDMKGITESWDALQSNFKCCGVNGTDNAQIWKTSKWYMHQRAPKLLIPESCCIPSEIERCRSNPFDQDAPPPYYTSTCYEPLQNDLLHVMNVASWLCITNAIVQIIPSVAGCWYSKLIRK
The description is as above.

Results are given in words; binding and its absence hold for the method and conditions named. Binding seen in cells or lysates may run through a third protein. Some binding calls cover weakened binding; strength is not graded here. For some of these results: Where a sequence is shown, tags or fusion partners need not be part of it.

B1: BLI-3 (enzyme, UniProt O61213 22-1497)
chain: IQQNEEFQRYDGWYNNLANSEWGSAGSRLHRDARSYYSDGVYSVNNSLPSARELSDILFKGESGIPNTRGCTTLLAFFSQVVAYEIMQSNGVSCPLETLKIQVPLCDNVFDKECEGKTEIPFTRAKYDKATGNGLNSPREQINERTSWIDGSFIYGTTQPWVSSLRSFKQGRLAEGVPGYPPLNNPHIPLNNPAPPQVHRLMSPDRLFMLGDSRVNENPGLLSFGLILFRWHNYNANQIHREHPDWTDEQIFQAARRLVIASMQKIIAYDFVPGLLGEDVRLSNYTKYMPHVPPGISHAFGAAAFRFPHSIVPPAMLLRKRGNKCEFRTEVGGYPALRLCQNWWNAQDIVKEYSVDEIILGMASQIAERDDNIVVEDLRDYIFGPMHFSRLDVVASSIMRGRDNGVPPYNELRRTFGLAPKTWETMNEDFYKKHTAKVEKLKELYGGNILYLDAYVGGMLEGGENGPGELFKEIIKDQFTRIRDGDRFWFENKLNGLFTDEEVQMIHSITLRDIIKATTDIDETMLQKDVFFFKEGDPCPQPFQVNTTGLEPCVPFMQSTYWTDNDTTYVFTLIGLACVPLICYGIGRYLVNRRIAIGHNSACDSLTTDFANDDCGAKGDIYGVNALEWLQEEYIRQVRIEIENTTLAVKKPRGGILRKIRFETGQKIELFHSMPNPSAMHGPFVLLSQKNNHHLVIRLSSDRDLSKFLDQIRQAASGINAEVIIKDEENSILLSQAITKERRQDRLDLFFREAYAKAFNDSELQDSETSFDSSNDDILNETISREELASAMGMKANNEFVKRMFAMTAKHNEDSLSFNEFLTVLREFVNAPQKQKLQTLFKMCDLEGKNKVLRKDLAELVKSLNQTAGVHITESVQLRLFNEVLHYAGVSNDAKYLTYDDFNALFSDIPDKQPVGLPFNRKNYQPSIGETSSLNSFAVVDRSINSSAPLTLIHKVSAFLETYRQHVFIVFCFVAINLVLFFERFWHYRYMAENRDLRRVMGAGIAITRGAAGALSFCMALILLTVCRNIITLLRETVIAQYIPFDSAIAFHKIVALFAAFWATLHTVGHCVNFYHVGTQSQEGLACLFQEAFFGSNFLPSISYWFFSTITGLTGIALVAVMCIIYVFALPCFIKRAYHAFRLTHLLNIAFYALTLLHGLPKLLDSPKFGYYVVGPIVLFVIDRIIGLMQYYKKLEIVNAEILPSDIIYIEYRRPREFKYKSGQWVTVSSPSISCTFNESHAFSIASSPQDENMKLYIKAVGPWTWKLRSELIRSLNTGSPFPLIHMKGPYGDGNQEWMDYEVAIMVGAGIGVTPYASTLVDLVQRTSSDSFHRVRCRKVYFLWVCSTHKNYEWFVDVLKNVEDQARSGILETHIFVTQTFHKFDLRTTMLYICEKHFRATNSGISMFTGLHAKNHFGRPNFKAFFQFIQSEHKEQSKIGVFSCGPVNLNESIAEGCADANRQRDAPSFAHRFETF
For B1, the binding result in assay [1] and in assay [2] was “binds” in each case.

B2: BLI-3 (in worms) (enzyme, UniProt O61213 22-1497)
chain: IQQNEEFQRYDGWYNNLANSEWGSAGSRLHRDARSYYSDGVYSVNNSLPSARELSDILFKGESGIPNTRGCTTLLAFFSQVVAYEIMQSNGVSCPLETLKIQVPLCDNVFDKECEGKTEIPFTRAKYDKATGNGLNSPREQINERTSWIDGSFIYGTTQPWVSSLRSFKQGRLAEGVPGYPPLNNPHIPLNNPAPPQVHRLMSPDRLFMLGDSRVNENPGLLSFGLILFRWHNYNANQIHREHPDWTDEQIFQAARRLVIASMQKIIAYDFVPGLLGEDVRLSNYTKYMPHVPPGISHAFGAAAFRFPHSIVPPAMLLRKRGNKCEFRTEVGGYPALRLCQNWWNAQDIVKEYSVDEIILGMASQIAERDDNIVVEDLRDYIFGPMHFSRLDVVASSIMRGRDNGVPPYNELRRTFGLAPKTWETMNEDFYKKHTAKVEKLKELYGGNILYLDAYVGGMLEGGENGPGELFKEIIKDQFTRIRDGDRFWFENKLNGLFTDEEVQMIHSITLRDIIKATTDIDETMLQKDVFFFKEGDPCPQPFQVNTTGLEPCVPFMQSTYWTDNDTTYVFTLIGLACVPLICYGIGRYLVNRRIAIGHNSACDSLTTDFANDDCGAKGDIYGVNALEWLQEEYIRQVRIEIENTTLAVKKPRGGILRKIRFETGQKIELFHSMPNPSAMHGPFVLLSQKNNHHLVIRLSSDRDLSKFLDQIRQAASGINAEVIIKDEENSILLSQAITKERRQDRLDLFFREAYAKAFNDSELQDSETSFDSSNDDILNETISREELASAMGMKANNEFVKRMFAMTAKHNEDSLSFNEFLTVLREFVNAPQKQKLQTLFKMCDLEGKNKVLRKDLAELVKSLNQTAGVHITESVQLRLFNEVLHYAGVSNDAKYLTYDDFNALFSDIPDKQPVGLPFNRKNYQPSIGETSSLNSFAVVDRSINSSAPLTLIHKVSAFLETYRQHVFIVFCFVAINLVLFFERFWHYRYMAENRDLRRVMGAGIAITRGAAGALSFCMALILLTVCRNIITLLRETVIAQYIPFDSAIAFHKIVALFAAFWATLHTVGHCVNFYHVGTQSQEGLACLFQEAFFGSNFLPSISYWFFSTITGLTGIALVAVMCIIYVFALPCFIKRAYHAFRLTHLLNIAFYALTLLHGLPKLLDSPKFGYYVVGPIVLFVIDRIIGLMQYYKKLEIVNAEILPSDIIYIEYRRPREFKYKSGQWVTVSSPSISCTFNESHAFSIASSPQDENMKLYIKAVGPWTWKLRSELIRSLNTGSPFPLIHMKGPYGDGNQEWMDYEVAIMVGAGIGVTPYASTLVDLVQRTSSDSFHRVRCRKVYFLWVCSTHKNYEWFVDVLKNVEDQARSGILETHIFVTQTFHKFDLRTTMLYICEKHFRATNSGISMFTGLHAKNHFGRPNFKAFFQFIQSEHKEQSKIGVFSCGPVNLNESIAEGCADANRQRDAPSFAHRFETF
As for B2, the binding result in assay [3], in assay [4] and in assay [5] was “binds” throughout.

B3: (His)6Xpress-tagged TSP-15 (protein, UniProt Q9XVM9 1-258)
chain: MGALGDSAYGARGRLIKFSYIVTALISILFSISCICYGIWLLARRSQYAELVSPSLYVDVGRILVIISILSILNYLICFYAIFKEMRCFVTSCAVASIVIAVMLIIGGCIGLNFRDQLTHYTPLNLKMLTSLRELYGTHDMKGITESWDALQSNFKCCGVNGTDNAQIWKTSKWYMHQRAPKLLIPESCCIPSEIERCRSNPFDQDAPPPYYTSTCYEPLQNDLLHVMNVASWLCITNAIVQIIPSVAGCWYSKLIRK
B3: the binding entry in assay [2] is listed as “binds”.

B4: Endogenous TSP-15 (protein, UniProt Q9XVM9 1-258)
chain: MGALGDSAYGARGRLIKFSYIVTALISILFSISCICYGIWLLARRSQYAELVSPSLYVDVGRILVIISILSILNYLICFYAIFKEMRCFVTSCAVASIVIAVMLIIGGCIGLNFRDQLTHYTPLNLKMLTSLRELYGTHDMKGITESWDALQSNFKCCGVNGTDNAQIWKTSKWYMHQRAPKLLIPESCCIPSEIERCRSNPFDQDAPPPYYTSTCYEPLQNDLLHVMNVASWLCITNAIVQIIPSVAGCWYSKLIRK
As to B4, the binding entry in assay [3] is reported as “binds”.
